Source: article PMC11400633 (Protein Science : A Publication of the Protein Society, 2024)
Plain letter strings leave the end groups untold.

Experiment: general procedure: Fmoc solid-phase peptide synthesis; Wang resin (0.3 g, 1.1 mmol/g loading capacity); DCC/HOBT
Conditions: for final HPLC purity: analytical RP HPLC (Agilent 1200, Phenomenex Gemini C18)
[1] = whole synthesis, scale of the general procedure 0.3 g resin

Row | Substance | final HPLC purity [1] [%] | isolated yield [1] [%] | final HPLC purity (late stage modification step) [%]
1 | GQNGISDL | 97 | 85 | –
2 | c[isoKSDL] | – | – | 96
